In PubChem BioAssay (EPA / NIEHS):
Inconclusive results, whose numbers are uncertain, are shown with a selection of clear calls. Potencies beside an inconclusive call are fits to weak or partial responses and may not hold up. The source made the active and inactive calls. How the source made its calls: active means hit-call score of the fitted dose curve at least 0.9, where 1 is the maximum; inconclusive means response in the unintended direction; inactive means score below 0.9.

Sequences of proteins named here, by UniProt entry; tags and fusion partners are left off. A change or cut given only in a name is not applied to a line headed by its entry.
UniProt Q01717: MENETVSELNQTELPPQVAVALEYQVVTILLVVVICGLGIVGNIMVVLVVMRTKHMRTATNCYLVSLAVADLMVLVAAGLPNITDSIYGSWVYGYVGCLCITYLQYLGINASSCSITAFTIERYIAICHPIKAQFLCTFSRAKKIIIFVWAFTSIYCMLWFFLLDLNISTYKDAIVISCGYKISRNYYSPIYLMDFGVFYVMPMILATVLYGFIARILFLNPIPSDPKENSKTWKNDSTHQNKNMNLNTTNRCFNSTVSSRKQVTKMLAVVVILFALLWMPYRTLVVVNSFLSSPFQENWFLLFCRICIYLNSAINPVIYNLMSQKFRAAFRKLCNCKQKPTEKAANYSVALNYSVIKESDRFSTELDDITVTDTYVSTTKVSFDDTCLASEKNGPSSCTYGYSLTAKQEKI

Biological target: rat Thyrotropin Releasing Hormone Receptor (TRH), Trhr (gene 25570) (UniProt Q01717)
Assay: NVS_GPCR_rTRH: NovaScreen (NVS) G Protein-Coupled Receptor Assay for rat Thyrotropin Releasing Hormone Receptor (TRH) (AID 2283329);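 further: hit means lower bound tracer signal versus DMSO baseline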
Description: NVS_GPCR_rTRH is a biochemical, single-readout assay that uses extracted gene-proteins from Rat forebrain membranes in a tissue-based cell-free assay. Measurements were taken 4 hours after chemical dosing in a 48-well plate.NVS_GPCR_rTRH is one of one assay component(s) measured or calculated from the NVS_GPCR_rTRH assay. It is designed to make measurements of radioligand binding, a form of binding reporter, as detected with scintillation counting signals by Filter-based radiodetection technology.Data from the assay component NVS_GPCR_rTRH was analyzed into 1 assay endpoint. This assay endpoint, NVS_GPCR_rTRH, was analyzed in the positive analysis fitting direction relative to DMSO as the negative control and baseline of activity. Using a type of binding reporter, loss-of-signal activity can be used to understand changes in the binding as they relate to the gene Trhr. Furthermore, this assay endpoint can be referred to as a primary readout, because the performed assay has only produced 1 assay endpoint. To generalize the intended target to other relatable targets, this assay endpoint is annotated to the gpcr intended target family, where the subfamily is rhodopsin-like receptor.
Binding assays used specific radioligands (tritiated, iodinated) with non-radioactive competitive displacement ligands in agonist or antagonist protocols (as indicated) and various reference compounds and inhibitors to titrate specific binding to receptors and transporters. Most enzyme assays (CYPs, kinases, phosphatases, proteases, HDACs) used recombinant protein and specific substrates (fluorescence mostly, some colorimetric and radioactive) and inhibitors, followed by a biochemical separation of substrate and product. All assays for the biochemical HTS were initially run in duplicate at a single concentration (10 uM for CYP450 assays and 25 uM for all others). […] Each assay was run with positive and negative controls, and concurrent controls on every plate. The follow-up (secondary) screen tested active chemical-pairs in concentration series, as well as a few additional assays not tested in the primary screen, some selected negative inactives, and several cases re-run in the concentration series for confirmatory purposes.

SMILES	outcome	AC50
CC1=NN(c2ccc(S(=O)(=O)O)cc2)C(=O)C1N=Nc1ccccc1 (stereo not given)	inactive	–
C=C1CC[C@H]2C[C@@H]1C2(C)C	inactive	–
CCCCCCCCCCCCCOP(=O)(O)O	–	inconclusive: 2.29 nM
O=C(OCc1ccccc1)c1ccccc1O	–	inconclusive: 714 nM
O=Nc1ccc(Nc2ccccc2)cc1	–	inconclusive: 25000 nM
O=C1C=CC(=O)N1c1ccccc1	–	inconclusive: 46400 nM
CC(C)NCC(O)COc1ccc(CC(N)=O)cc1 (stereo not given)	–	inconclusive: 25000 nM
CC(=O)OC(C)C	inactive	–
N[C@@H](Cc1cc(I)c(Oc2ccc(O)c(I)c2)c(I)c1)C(=O)O	–	inconclusive: 5640 nM
O=S(=O)(O)c1cc(S(=O)(=O)O)c2c(N=Nc3ccccc3)c(O)ccc2c1	inactive	–
C1CCCNCC1	inactive	–
CCOCC(C)O (stereo not given)	–	inconclusive: 336 nM
c1ccc(B(c2ccccc2)c2ccccc2)cc1	–	inconclusive: 328 nM
O=C(c1ccccc1)C1CCC1	–	inconclusive: 6720 nM
CCCCOCCOCCOCCOCCO	–	inconclusive: 6020 nM
CC(C)(N)CO	–	inconclusive: 42800 nM
CC#C[C@]1(O)CC[C@H]2[C@@H]3CCC4=CC(=O)CCC4=C3[C@@H](c3ccc(N(C)C)cc3)C[C@@]21C	–	inconclusive: 5910 nM
CC1(C)[C@@H]2CC[C@@]1(C)C(=O)C2	–	inconclusive: 366 nM
CC(CCC(=O)O)(c1ccc(O)cc1)c1ccc(O)cc1	inactive	–
CC(=O)C=CC1=C(C)CCCC1(C)C	–	inconclusive: 39.6 nM

Looked up one by one from the list above, 2 records:
SMILES	outcome	AC50
CC(=O)OC(C)C	inactive	–
CC1(C)[C@@H]2CC[C@@]1(C)C(=O)C2	–	inconclusive: 366 nM

Next part.

SMILES	outcome	AC50
CCC(Cc1c(I)cc(I)c(N)c1I)C(=O)O (stereo not given)	inactive	–
CCCCCCCCCCCCCC[P+](CCCC)(CCCC)CCCC	–	inconclusive: 57 nM
CCOC(=O)c1ccccc1	–	inconclusive: 4960 nM
CCCCCCCCn1sc(Cl)c(Cl)c1=O	–	inconclusive: 46800 nM
CCCCCCCCCCCCCC(=O)O	–	inconclusive: 25000 nM
CC(C)c1cc(C(C)C)cc(C(C)C)c1	–	inconclusive: 4060 nM
CCCCc1ccc2ccccc2c1S(=O)(=O)O	inactive	–
CCN(CC)C(=O)c1cc(S(=O)(=O)Cc2ccccc2)c(N2CCC(c3ccccc3)CC2)cc1N(CC)CCN(C)C	–	inconclusive: 358 nM
Oc1ccc(Cl)cc1Cc1cc(Cl)ccc1O	–	inconclusive: 669 nM
CC(C)=CCC[C@H](C)CCO	–	inconclusive: 226 nM
CCCCCCCCCCOS(=O)(=O)O	inactive	–
CCCCCCCCCC=O	–	inconclusive: 1260 nM
COc1ccc(C(=O)c2ccccc2)c(O)c1	–	inconclusive: 80.3 nM
Cc1cc(C)n(CO)n1	–	inconclusive: 1360 nM
CCCCCCC(C)(C)C(=O)O	inactive	–
COCCO	–	inconclusive: 6770 nM
CC1=CC[C@H]2C[C@@H]1C2(C)C	–	inconclusive: 940 nM
O=C(c1ccc(O)cc1O)c1ccc(O)cc1O	inactive	–
CCCCOCCOC(=O)COc1ccc(Cl)cc1Cl	–	inconclusive: 186 nM
CC(=O)[C@H]1[C@H](C#N)C[C@H]2[C@@H]3CC=C4C[C@@H](O)CC[C@]4(C)[C@H]3CC[C@@]21C	–	inconclusive: 3910 nM
